Patent US5228957A, “Separation of methyl T-butyl ether from close boiling C5 hydrocarbons by extractive distillation” (priority 1993, dated 1993)

Assay: Extractive distillation agent separating methyl t-butyl ether from n-pentane-cyclopentane mixtures (vapor-liquid equilibrium still)
Assay type: physicochemical

SMILES: CC(=O)N(C)C [Dimethylacetamide]
- Relative Volatility Pnt/MTBE: 3.5
